These are yes or no findings as the source states them, for the method shown. For part of these data: In cells and extracts the contact can be indirect. Some binding calls cover weakened binding; strength is not graded here.
Tests used:
[1] = target: HRAS protein (purified) (UniProt P01112); experiment: pull-down; in vitro pull-down with purified proteins (Supplementary Fig. 8b); bait not stated; both purified
[2] = target: T1, endogenous DX2 (human (endogenous in DLD-1 and H460)) (UniProt Q13155); experiment: co-IP; immunoprecipitation over time after EGF; cytosol and nucleus fractions; blot intensities quantified relative to the maximum
T1 sequence: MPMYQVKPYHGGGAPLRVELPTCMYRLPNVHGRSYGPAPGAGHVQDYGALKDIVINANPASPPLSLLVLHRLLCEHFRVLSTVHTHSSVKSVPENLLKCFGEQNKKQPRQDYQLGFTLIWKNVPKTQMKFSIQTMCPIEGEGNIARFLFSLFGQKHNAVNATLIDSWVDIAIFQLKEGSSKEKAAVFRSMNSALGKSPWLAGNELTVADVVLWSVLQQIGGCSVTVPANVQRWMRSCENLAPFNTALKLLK

Chains of the proteins cited; added tags and fusions are not shown.
UniProt Q8N726: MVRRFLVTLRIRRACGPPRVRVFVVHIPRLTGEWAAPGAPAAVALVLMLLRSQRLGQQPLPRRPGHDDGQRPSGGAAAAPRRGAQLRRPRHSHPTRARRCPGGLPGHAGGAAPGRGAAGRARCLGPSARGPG

[3] = target: T1, endogenous DX2 (human (endogenous in DLD-1 and H460)); experiment: co-IP; endogenous immunoprecipitation in H460 cells treated with DXI

Substance	binding [1]	binding [2]	binding [3]
Smurf2 protein (purified) (from UniProt Q9HAU4 1-748) (enzyme)	binds	–	–
p14ARF (from UniProt Q8N726 1-132)	–	binds	binds
